According to the RNAGym collection of RNA variant scans (doi:10.1126/science.aae0568):
Variants at the background level are over-represented here.

B1: tRNA (parent)
chain: GUUCCGUUGGCGUAAUGGUAACGCGUCUCCCUCCUAAGGAGAAGACUGCGGGUUCGAGUCCCGUACGGAACG

Variants of: B1
Assay: yeast fitness relative to wild type (ratio to wild type); higher = fitter; tRNA-Arg(CCU), competitive growth, 37 C, YPD
In short: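 Genotype frequency changes were the basis for Darwinian fitness relative to wild type. The frequencies came from 100-nucleotide paired-end sequencing of gene amplicons from the start population and each end population of pooled yeast strains with tRNA-Arg(CCU) gene variants at the native locus. Competition ran in YPD at 37°C for 24 hours in six replicates, genotypes needed ≥ 100 starting reads, and estimates < 0.5 were set to 0.5.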

Variant | yeast fitness
A15U C31U C33U G52A U59A | ≤ 0.5
C24A G52A C55U | ≤ 0.5
A15G G23C G38C C49U | ≤ 0.5
A20U C29G C66U | ≤ 0.5
C4U A14U C33U C34U G38A G51A C55A A65U | ≤ 0.5
C5U U7A G10A G48C | ≤ 0.5
U54C G68A | 0.937
A14G C46G C55A A70G | ≤ 0.5
G23C G41A C62A | ≤ 0.5
A20G G50A U59C | 0.571
C4A U8A G12C U19C C30U | ≤ 0.5
G17A A36U C46A G52C U59A C61G A69G | ≤ 0.5
U35C C55U | ≤ 0.5
C31A A37G G38A A40G | ≤ 0.5
A37C A43U A69U | 0.738
U13A A20G C22G C24G A36U A40C G51C | ≤ 0.5
U7A G12C C27G C31A C46A | ≤ 0.5
C4U G12A A42U G68A | ≤ 0.5
U2G A21G G39A A70G | ≤ 0.5
U16C G18A C24G A45U U47C | ≤ 0.5
G9C G12C A40U G41A C66U | ≤ 0.5

Variant | yeast fitness
C5U U8A G18C C46U G51A C66U | ≤ 0.5
C11U C30A A36G A65G | ≤ 0.5
G6C U19A C55U G56C | ≤ 0.5
C5G U13G C29U A40G C60U A65G | ≤ 0.5
U2A U19G C29G C62U | ≤ 0.5
G17A C31A G48C | ≤ 0.5
U19A C27A C31A U32C A57C | ≤ 0.5
C5G A14C G50A C55G C62A | ≤ 0.5
U2G C5A A43U C55U | ≤ 0.5
G6A C22G U47A A70C | ≤ 0.5
U8C A14U C22G C30U | 0.581
A20C C24G U35A C60G | ≤ 0.5
C33U C34A G50A C62U | ≤ 0.5
C4G G18C A37C A57C | ≤ 0.5
C5U G25C A36C A40U | ≤ 0.5
G6A U8C A69C | 0.678
A20C C55U G67C | ≤ 0.5
U7C A15G A65U A70U | ≤ 0.5
U7A G23A A42G C62U | ≤ 0.5
A21C G25C A57G A69U | ≤ 0.5
C33A G39C C49U U54A | ≤ 0.5

Variant | yeast fitness
C27A C31A G52A G58C A70G | ≤ 0.5
A21G C33G G38A A69C | ≤ 0.5
C5G G18A G50A G51C | ≤ 0.5
A14U A37U A70U | ≤ 0.5
G10A U16A U35C C49G C55A | ≤ 0.5
G10A A14C C29A | ≤ 0.5
G18C C33U A37U | ≤ 0.5
C4U U8C | 0.942
G12A G23C G25A | ≤ 0.5
C5G U13G A45U A69C | ≤ 0.5
C27U A37C A40U A43U C66U | 0.583
A45U C60G C66G | ≤ 0.5
C27G A42U | 0.721
A15U C27G G63A G67A | ≤ 0.5
C11A C29U A43C A65U | ≤ 0.5
G10A G48A A69C | 0.628
G10A G25C C29A G52A | ≤ 0.5
C5U C22A U28A G52C | ≤ 0.5
A20G C29G C33A | ≤ 0.5
U3C C31A A42G A43G G68C | ≤ 0.5
G17A A70C | 0.842

Variant | yeast fitness
G17C C24G C34U | 0.527
U7C U13A G25A C34G G39C | ≤ 0.5
A45C G48A G51C | ≤ 0.5
A14C G25C G48A C49U | ≤ 0.5
C11U C29U C60G | ≤ 0.5
G25A A43U U54A C66U | ≤ 0.5
U3A C11G A14C C24G C62G | ≤ 0.5
C33A A37G C62A | ≤ 0.5
C27A C61G A69G | ≤ 0.5
U8C G44A | 1.01
A36C C61U | 0.581
C4G C22G G52C G68C | 0.575
C11U G48A C55G A57U | ≤ 0.5
A37G C49A G63C | ≤ 0.5
C34A G52A U54A A70C | ≤ 0.5
U7A G9C G17C | 0.55
G25A A40U G58C | 0.973
U7G G41C A69C | ≤ 0.5
A65C A70C | 1.03
G38A C61A A65U | ≤ 0.5
